Results taken from the supplement of paper PMC4604168 (melanoma cell lines).
The other results are listed elsewhere or left out. Single values are uncertain, as repeats are few or missing.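 Imaging used 1,536-well plates; nuclei positive for cleaved PARP by antibody were divided by total DNA-stained nuclei to yield the apoptosis fraction. Doses for screening kept most cells viable, and cell lines differ markedly in resting and induced cleaved-PARP levels.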

How the values were obtained:
Experiment in all cases: cleaved PARP positive nuclei fraction relative to DMSO control; melanoma cells; higher = more apoptosis
Settings in all cases: library dose: low library concentration; 72 h
MZ2-MEL = system: MZ2-MEL
MeWo = system: MeWo
RPMI7951 = system: RPMI7951
RVH-421 = system: RVH-421
SkMel28 = system: SkMel28
SkMel2 = system: SkMel2
SkMel30 = system: SkMel30
SkMel5 = system: SkMel5
UACC257 = system: UACC257
UACC62 = system: UACC62
WM115 = system: WM115
WM1716 = system: WM1716
WM1745 = system: WM1745
WM3526 = system: WM3526
WM3619 = system: WM3619
WM451Lu = system: WM451Lu

Row | SMILES | cleaved PARP positive nuclei fraction (MZ2-MEL) [%] | cleaved PARP positive nuclei fraction (MeWo) [%] | cleaved PARP positive nuclei fraction (RPMI7951) [%] | cleaved PARP positive nuclei fraction (RVH-421) [%] | cleaved PARP positive nuclei fraction (SkMel28) [%] | cleaved PARP positive nuclei fraction (SkMel2) [%] | cleaved PARP positive nuclei fraction (SkMel30) [%] | cleaved PARP positive nuclei fraction (SkMel5) [%] | cleaved PARP positive nuclei fraction (UACC257) [%] | cleaved PARP positive nuclei fraction (UACC62) [%] | cleaved PARP positive nuclei fraction (WM115) [%] | cleaved PARP positive nuclei fraction (WM1716) [%] | cleaved PARP positive nuclei fraction (WM1745) [%] | cleaved PARP positive nuclei fraction (WM3526) [%] | cleaved PARP positive nuclei fraction (WM3619) [%] | cleaved PARP positive nuclei fraction (WM451Lu) [%]
1 | COc1cc([C@@H]2c3cc4c(cc3[C@@H](O[C@@H]3O[C@@H]5CO[C@@H](C)O[C@H]5[C@H](O)[C@H]3O)[C@H]3COC(=O)[C@H]23)OCO4)cc(OC)c1O [etoposide] + CN(NC(=O)CC(=O)NN(C)C(=S)c1ccccc1)C(=S)c1ccccc1 [STA4783] (first compound 0.02 µM, partner dose 0.006 µM) | 94.4 | 131 | 123 | 102 | 138 | 53.7 | 84.7 | 61.8 | 93.5 | 106 | 122 | 126 | 177 | 26.8 | 142 | 
2 | N#CC[C@H](C1CCCC1)n1cc(-c2ncnc3[nH]ccc23)cn1 [ruxolitinib] + C[C@@H]1CCN(C(=O)CC#N)C[C@@H]1N(C)c1ncnc2[nH]ccc12 [CP690550] (first compound 1 µM, partner dose 1 µM) | 121 | 168 | 133 | 80.5 | 56.7 | 47.5 | 63.7 | 44.9 | 25.5 | 51.5 | 101 | 42.3 | 92.1 | 50.7 | 90.4 | 48.5
3 | O=C(Nc1cc(C(F)(F)F)cc(C(F)(F)F)c1)c1cc(Cl)ccc1O + CC1(C)NC(=O)N(c2ccc([N+](=O)[O-])c(C(F)(F)F)c2)C1=O [nilutamide] (first compound 0.016 µM, partner dose 1 µM) | 26.1 | 85 | 246 | 171 | 107 | 92.6 | 66.1 | 76.4 | 126 | 124 | 102 | 43.5 | 82.2 | 98.8 | 80.5 | 52.5
4 | Cc1ccc(Nc2nccc(N(C)c3ccc4c(C)n(C)nc4c3)n2)cc1S(N)(=O)=O [Pazopanib] + CCCCCCCCCCCC1=C(O)C(=O)C=C(O)C1=O [Embelin] (first compound 0.4 µM, partner dose 1.2 µM) | 173 | 123 | 76.3 | 113 | 101 | 122 | 51.2 | 75 | 224 | 80.6 | 348 | 213 | 86 | 85.7 | 102 | 68.3
5 | N#CC[C@H](C1CCCC1)n1cc(-c2ncnc3[nH]ccc23)cn1 [ruxolitinib] + CO[C@@H]1[C@H](N(C)C(=O)c2ccccc2)C[C@H]2O[C@]1(C)n1c3ccccc3c3c4c(c5c6ccccc6n2c5c31)C(=O)NC4 [Midostaurin] (first compound 1 µM, partner dose 0.08 µM) | 152 | 180 | 183 | 121 | 87.8 | 71.4 | 321 | 75.2 | 108 | 118 | 297 | 158 | 108 | 101 | 104 | 179
6 | O=C(/C=C/c1cccnc1)NCCCCC1CCN(C(=O)c2ccccc2)CC1 + O=C(Nc1cccc(Cl)c1)Nc1ncc(CCNc2ncnc3ccsc23)s1 [SNS314] (first compound 0.01 µM, partner dose 0.0008 µM) | 369 | 152 | 135 | 327 | 146 | 291 | 72.4 | 78.1 | 75.2 | 71.6 | 360 | 90.8 | 85.3 | 59.9 | 206 | 88.9
7 | Cc1cc(Nc2cc(N3CCN(C)CC3)nc(Sc3ccc(NC(=O)C4CC4)cc3)n2)n[nH]1 [Tozasertib] + CC1(C)NC(=O)N(c2ccc([N+](=O)[O-])c(C(F)(F)F)c2)C1=O [nilutamide] (first compound 0.006 µM, partner dose 1 µM) | 52.6 | 338 | 49 | 27.1 | 357 | 85.4 | 66.4 | 71.1 | 123 | 128 | 152 | 90.7 | 125 | 66.2 | 110 | 236
8 | Cc1ccc(Nc2nccc(N(C)c3ccc4c(C)n(C)nc4c3)n2)cc1S(N)(=O)=O [Pazopanib] + Oc1cc(-c2nc(-c3ccccc3)[nH]c2-c2ccncc2)ccc1Cl [L779450] (first compound 0.4 µM, partner dose 0.2 µM) | 193 | 76.4 | 74.9 | 133 | 76.1 | 96.1 | 529 | 86.9 | 143 | 185 | 121 | 207 | 113 | 62.8 | 84.9 | 22.3
9 | Cc1cc(Nc2cc(N3CCN(C)CC3)nc(Sc3ccc(NC(=O)C4CC4)cc3)n2)n[nH]1 [Tozasertib] + c1cc(-c2cnn3cc(-c4ccc(OCCN5CCCCC5)cc4)cnc23)ccn1 [Dorsomorphin] (first compound 0.006 µM, partner dose 0.4 µM) | 35.7 | 263 | 52.8 | 70.7 | 71.4 | 52.6 | 62.8 | 63.4 | 53.4 | 121 | 75.7 | 40.7 | 110 | 70.7 | 99.2 | 99.4
10 | Cc1cc(Nc2cc(N3CCN(C)CC3)nc(Sc3ccc(NC(=O)C4CC4)cc3)n2)n[nH]1 [Tozasertib] + O=c1cc(-c2cccc3c2Sc2ccccc2S3)oc(N2CCOCC2)c1 [KU55933] (first compound 0.006 µM, partner dose 1 µM) | 191 | 146 | 170 | 36.6 | 124 | 124 | 87 | 69.7 | 236 | 184 | 227 | 99.1 | 99.4 | 93.1 | 77.2 | 155
11 | Cc1cc(Nc2cc(N3CCN(C)CC3)nc(Sc3ccc(NC(=O)C4CC4)cc3)n2)n[nH]1 [Tozasertib] + COc1cc2ncnc(Nc3ccc(Oc4ccccc4)cc3)c2cc1OC [SrcI1] (first compound 0.006 µM, partner dose 2 µM) | 232 | 114 | 54.1 | 44.7 | 241 | 28.7 | 93.5 | 81.4 | 199 | 115 | 66.2 | 108 | 127 | 99.8 | 101 | 83.7
12 | O=C(/C=C/c1cccnc1)NCCCCC1CCN(C(=O)c2ccccc2)CC1 + Oc1nc(-c2ccc(C(F)(F)F)cc2)nc2c1CSCC2 [XAV939] (first compound 0.01 µM, partner dose 2 µM) | 99.5 | 162 | 231 | 67.9 | 133 | 126 | 79.9 | 211 | 184 | 131 | 155 | 194 | 99.9 | 40.4 | 168 | 37.9
13 | O=C(Nc1cc(C(F)(F)F)cc(C(F)(F)F)c1)c1cc(Cl)ccc1O + COc1cc(Nc2ncc(F)c(Nc3ccc4c(n3)NC(=O)C(C)(C)O4)n2)cc(OC)c1OC [Tamatinib] (first compound 0.016 µM, partner dose 0.4 µM) | 46.1 | 186 | 49.9 | 30.6 | 97.7 | 86.2 | 71.6 | 54.2 | 278 | 435 | 153 | 137 | 176 | 55.4 | 99.8 | 131
14 | O=C(Nc1cc(C(F)(F)F)cc(C(F)(F)F)c1)c1cc(Cl)ccc1O + Oc1nc(-c2ccc(C(F)(F)F)cc2)nc2c1CSCC2 [XAV939] (first compound 0.016 µM, partner dose 2 µM) | 97.7 | 30.5 | 98.4 | 76.3 | 145 | 94.1 | 72.3 | 152 | 45.2 | 105 | 182 | 94 | 86.1 | 156 | 67.4 | 37.9
15 | CCCCCCCCCCCCCCCCCCOP(=O)([O-])OC1CC[N+](C)(C)CC1 [Perifosine] + CCCCCCCCCCCC1=C(O)C(=O)C=C(O)C1=O [Embelin] (first compound 0.4 µM, partner dose 1.2 µM) | 120 | 87.6 | 41.3 | 21.8 | 99.4 | 89.1 | 82.7 | 148 | 44.6 | 189 | 202 | 62.2 | 96.6 | 70.3 | 104 | 169
16 | O=C(/C=C/c1cccnc1)NCCCCC1CCN(C(=O)c2ccccc2)CC1 + CN(C)S(=O)(=O)c1ccc2c(c1)/C(=C/c1cc3c([nH]1)CCCC3)C(=O)N2 [SU6656] (first compound 0.01 µM, partner dose 0.4 µM) | 603 | 45.5 | 92.9 | 168 | 47.7 | 795 | 61.2 | 155 | 38.6 | 180 | 92 | 110 | 92.6 | 58.5 | 101 | 322
17 | COc1cc([C@@H]2c3cc4c(cc3[C@@H](O[C@@H]3O[C@@H]5CO[C@@H](C)O[C@H]5[C@H](O)[C@H]3O)[C@H]3COC(=O)[C@H]23)OCO4)cc(OC)c1O [etoposide] + COc1cc2ncnc(Nc3ccc(Oc4ccccc4)cc3)c2cc1OC [SrcI1] (first compound 0.02 µM, partner dose 2 µM) | 135 | 51 | 194 | 96 | 182 | 109 | 128 | 74 | 135 | 286 | 138 | 252 | 108 | 95.1 | 250 | 191
18 | O=c1[nH]nc(Sc2ncc([N+](=O)[O-])s2)n1-c1ccc2c(c1)OCCO2 + COc1ccc(-c2ccc3c(N4CCOCC4)nc(N4C[C@@H](C)O[C@@H](C)C4)nc3n2)cc1CO [KU0063794] (first compound 0.2 µM, partner dose 0.02 µM) | 44.1 | 81.8 | 64.5 | 15.2 | 88.7 | 177 | 87.9 | 134 | 165 | 62.8 | 22.3 | 81.1 | 83.4 | 67 | 93.5 | 69.5

Quoted from the listing:
cleaved PARP positive nuclei fraction (WM3526) [%], O=C(/C=C/c1cccnc1)NCCCCC1CCN(C(=O)c2ccccc2)CC1 + O=C(Nc1cccc(Cl)c1)Nc1ncc(CCNc2ncnc3ccsc23)s1 [SNS314] (first compound 0.01 µM, partner dose 0.0008 µM) is entered as 59.9
cleaved PARP positive nuclei fraction (RPMI7951) [%], Cc1cc(Nc2cc(N3CCN(C)CC3)nc(Sc3ccc(NC(=O)C4CC4)cc3)n2)n[nH]1 [Tozasertib] + c1cc(-c2cnn3cc(-c4ccc(OCCN5CCCCC5)cc4)cnc23)ccn1 [Dorsomorphin] (first compound 0.006 µM, partner dose 0.4 µM) is entered as 52.8
